Results are given in words; binding and its absence hold for the method and conditions named. Binding seen in cells or lysates may run through a third protein. Some binding calls cover weakened binding; strength is not graded here.
Molecular target: stimulator of interferon genes (STING) (human (endogenous in ARPE-19)) (UniProt Q86WV6)
Test: co-IP; endogenous immunoprecipitation from ARPE-19 cell lysates; supernatants with the antibody at 4 °C overnight, AG beads 2 h at 4 °C, washed with PBS-Tween, western blot; cells exposed to atRAL (7.5 μM, 0, 3, 6, 12 h); also scramble-rLV- and shRNA-SHP-1-rLV-transfected cells with atRAL (7.5 μM, 6 h)

Protein sequences, listed by entry. Tags and fused reporters are not part of them.
UniProt Q86WV6: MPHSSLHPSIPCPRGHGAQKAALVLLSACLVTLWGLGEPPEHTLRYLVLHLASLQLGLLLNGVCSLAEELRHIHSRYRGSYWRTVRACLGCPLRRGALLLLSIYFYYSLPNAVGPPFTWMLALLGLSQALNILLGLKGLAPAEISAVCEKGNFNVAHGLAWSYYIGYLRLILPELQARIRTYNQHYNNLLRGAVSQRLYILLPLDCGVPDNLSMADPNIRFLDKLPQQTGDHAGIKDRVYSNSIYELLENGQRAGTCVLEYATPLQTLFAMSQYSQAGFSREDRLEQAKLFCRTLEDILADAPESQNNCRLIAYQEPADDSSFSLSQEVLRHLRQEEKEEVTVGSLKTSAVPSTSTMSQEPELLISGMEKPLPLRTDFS
UniProt P29350: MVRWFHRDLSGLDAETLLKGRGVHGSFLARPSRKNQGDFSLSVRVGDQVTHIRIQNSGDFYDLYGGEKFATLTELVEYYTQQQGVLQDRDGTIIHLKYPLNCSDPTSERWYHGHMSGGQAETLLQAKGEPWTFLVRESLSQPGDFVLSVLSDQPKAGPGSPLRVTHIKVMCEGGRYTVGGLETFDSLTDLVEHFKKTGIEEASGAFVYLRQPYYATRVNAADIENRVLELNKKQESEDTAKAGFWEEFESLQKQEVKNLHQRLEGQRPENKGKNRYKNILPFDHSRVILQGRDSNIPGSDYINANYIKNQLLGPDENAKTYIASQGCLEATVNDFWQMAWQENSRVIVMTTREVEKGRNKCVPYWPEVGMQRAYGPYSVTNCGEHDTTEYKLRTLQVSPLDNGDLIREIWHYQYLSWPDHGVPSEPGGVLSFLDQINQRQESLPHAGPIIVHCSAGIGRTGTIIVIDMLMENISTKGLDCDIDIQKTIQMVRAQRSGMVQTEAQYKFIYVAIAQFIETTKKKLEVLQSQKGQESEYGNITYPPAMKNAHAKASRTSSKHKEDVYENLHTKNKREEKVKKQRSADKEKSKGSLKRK

binding: binds
Substance: Src-homology 2 domain-containing phosphatase (SHP)-1 (from UniProt P29350 1-595) (enzyme)

From article PMC9588232
